Experimental data: paper PMC8357241

By UniProt entry, the sequences of proteins in these tests, tags left out.
UniProt P09874, whole entry: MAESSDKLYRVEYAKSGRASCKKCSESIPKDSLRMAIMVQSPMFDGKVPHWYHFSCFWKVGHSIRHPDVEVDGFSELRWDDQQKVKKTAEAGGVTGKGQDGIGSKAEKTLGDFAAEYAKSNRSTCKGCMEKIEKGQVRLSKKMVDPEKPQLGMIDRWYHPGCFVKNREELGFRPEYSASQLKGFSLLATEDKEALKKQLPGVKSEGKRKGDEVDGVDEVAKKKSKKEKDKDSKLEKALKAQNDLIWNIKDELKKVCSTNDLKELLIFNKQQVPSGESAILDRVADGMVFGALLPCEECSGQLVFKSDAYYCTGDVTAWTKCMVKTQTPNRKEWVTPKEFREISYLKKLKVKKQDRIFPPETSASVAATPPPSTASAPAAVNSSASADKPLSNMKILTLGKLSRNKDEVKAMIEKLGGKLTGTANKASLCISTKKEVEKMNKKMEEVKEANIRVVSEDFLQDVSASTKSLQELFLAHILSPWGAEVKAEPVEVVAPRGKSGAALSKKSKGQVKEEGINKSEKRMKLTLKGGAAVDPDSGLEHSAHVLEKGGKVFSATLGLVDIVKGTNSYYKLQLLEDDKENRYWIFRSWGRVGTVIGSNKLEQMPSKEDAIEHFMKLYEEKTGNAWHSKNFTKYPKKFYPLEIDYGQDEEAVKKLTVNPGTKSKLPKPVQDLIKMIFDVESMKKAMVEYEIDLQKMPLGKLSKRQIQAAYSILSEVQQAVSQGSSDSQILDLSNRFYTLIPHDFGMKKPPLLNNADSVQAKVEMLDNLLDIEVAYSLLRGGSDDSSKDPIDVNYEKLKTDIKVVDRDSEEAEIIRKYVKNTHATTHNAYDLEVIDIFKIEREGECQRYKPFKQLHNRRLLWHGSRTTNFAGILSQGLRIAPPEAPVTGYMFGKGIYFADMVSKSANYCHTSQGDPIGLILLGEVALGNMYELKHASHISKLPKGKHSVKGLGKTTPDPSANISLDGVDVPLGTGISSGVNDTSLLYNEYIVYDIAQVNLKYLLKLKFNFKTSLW

Target: PARP1 (UniProt P09874)
Assay: AFM in liquid
Settings: nick by Nt.BsmAI between bases 172 and 173, AFM: 12.5 mM NaCl, 12.5 mM Hepes, 0.5 mM TCEP pH 7.8, room temperature, recombinant protein, protein details: N-terminal His6-AviTag, probe letters rebuilt from the primers and the genome

Sequence: TGAAATTGCCGCGTATTACGCCGCAGCGCCGGTCCGGCTGGGAGGCGCAAAAGTACCGCACCTGATGCCGGGTGACTCACTGAACCTGCAGACGGCTCAGGATACGGATAACGGCTACTCCGTGTTTGAGCAGTCACTGCTGCGGTATATCGCTGCCGGGCTGGGTGTCTCGTATGAGCAGCTTTCCCGGAATTACGCCCAGATGAGCTACTCCACGGCACGGGCCAGTGCGAACGAGTCGTGGGCGTACTTTATGGGGCGGCGAAAATTCGTCGCATCCCGTCAGGCGAGCCAGATGTTTCTGTGCTGGCTGGAAGAGGCCATCGTTCGCCGCGTGGTGACGTTACCTTCAAAAGCGCGCTTCAGTTTTCAGGAAGCCCGCAGTGCCTGGGGGAACTGCGACTGGATAGGCTCCGGTCGTATGGCCATCGATGGTCTGAAAGAAGTTCAGGAAGCGGTGATGCTGATAGAAGCCGGACTGAGTACCTACGAGAAA (double strand) [496-bp lambda PCR fragment with SSB]
- binding result (500 nM olaparib, similar height profiles): binds
- binding result (no olaparib): binds

Construct, isoform or probe ends are uncertain for at least one entry.
